For some assays here: A weaker result is weaker than the reference pair of the same experiment. For at least one entry, the source does not settle the construct or the ends of the probe. For some assays here: No signal at the amounts used counts as a negative. For some assays here: At least one verdict rests on a figure or table, not on a statement of the authors.
What was measured:
[1] = tested on: Ku dCTR (human); assay: EMSA; conditions: EMSA: 25 mM Hepes-KOH pH 7.5, 50 mM NaCl, 1 mM DTT, 1 mM EDTA, 10% glycerol, 0.1 uM BSA, room temperature, 25 min, recombinant protein
[2] = tested on: Ku70/Ku80 heterodimer (HeLa) (human (HeLa cells)); assay: EMSA; conditions: EMSA: 25 mM Hepes-KOH pH 7.5, 50 mM NaCl, 1 mM DTT, 1 mM EDTA, 10% glycerol, 0.1 uM BSA, room temperature, 25 min, native protein
[3] = tested on: Ku70/Ku80 heterodimer FL (baculovirus) + APLF; assay: EMSA; conditions: supershift, EMSA: 25 mM Hepes-KOH pH 7.5, 50 mM NaCl, 1 mM DTT, 1 mM EDTA, 10% glycerol, 0.1 uM BSA, room temperature, 25 min, recombinant protein, protein details: His (Ku80)
[4] = tested on: Ku70/Ku80 heterodimer FL (baculovirus) + PAXX; assay: EMSA; conditions: no supershift by PAXX, Ku-RNA complex unaffected; EMSA: 25 mM Hepes-KOH pH 7.5, 50 mM NaCl, 1 mM DTT, 1 mM EDTA, 10% glycerol, 0.1 uM BSA, room temperature, 25 min; recombinant protein; protein details: His (Ku80),GST cleaved; label: 5'-FAM
[5] = tested on: Ku70/Ku80 heterodimer FL (baculovirus) (human); assay: EMSA; conditions: EMSA: 25 mM Hepes-KOH pH 7.5, 50 mM NaCl, 1 mM DTT, 1 mM EDTA, 10% glycerol, 0.1 uM BSA, room temperature, 25 min, recombinant protein, protein details: His (Ku80)
[6] = tested on: Ku5A T305A,S306A,T307A,S314A,T316A (human); assay: SEC-SAXS; conditions: Ku dimer fraction increased; recombinant protein; label: 5'-FAM
[7] = tested on: Ku5D T305D,S306D,T307D,S314D,T316D (human); assay: SEC-SAXS; conditions: Ku dimer fraction increased; recombinant protein; label: 5'-FAM

Chains of the proteins cited; added tags and fusions are not shown. Chains listed by the source or under a name are the forms on record and can include a tag or linker.
Ku5A T305A,S306A,T307A,S314A,T316A (human), one chain, as listed by the source T305A S306A T307A S314A T316A, chain 1 of 2: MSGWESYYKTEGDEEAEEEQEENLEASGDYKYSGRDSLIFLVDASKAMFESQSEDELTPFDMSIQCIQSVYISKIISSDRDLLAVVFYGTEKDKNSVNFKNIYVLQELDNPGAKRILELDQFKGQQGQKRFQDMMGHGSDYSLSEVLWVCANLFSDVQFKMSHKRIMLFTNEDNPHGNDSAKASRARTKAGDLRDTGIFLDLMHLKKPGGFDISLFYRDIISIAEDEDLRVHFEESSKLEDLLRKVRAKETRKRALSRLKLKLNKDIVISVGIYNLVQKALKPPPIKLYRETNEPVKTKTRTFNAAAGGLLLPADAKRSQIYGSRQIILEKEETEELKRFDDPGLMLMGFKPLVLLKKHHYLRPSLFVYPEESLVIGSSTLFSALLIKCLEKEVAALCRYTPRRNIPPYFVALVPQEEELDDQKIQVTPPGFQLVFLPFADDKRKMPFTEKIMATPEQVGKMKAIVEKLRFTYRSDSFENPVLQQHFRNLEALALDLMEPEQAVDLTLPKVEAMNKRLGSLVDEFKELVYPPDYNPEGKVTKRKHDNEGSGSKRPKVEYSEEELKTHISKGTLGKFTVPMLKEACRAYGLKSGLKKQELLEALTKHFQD
Ku70/Ku80 heterodimer (HeLa) (human (HeLa cells)), one chain, as listed by the source, chain 1 of 2: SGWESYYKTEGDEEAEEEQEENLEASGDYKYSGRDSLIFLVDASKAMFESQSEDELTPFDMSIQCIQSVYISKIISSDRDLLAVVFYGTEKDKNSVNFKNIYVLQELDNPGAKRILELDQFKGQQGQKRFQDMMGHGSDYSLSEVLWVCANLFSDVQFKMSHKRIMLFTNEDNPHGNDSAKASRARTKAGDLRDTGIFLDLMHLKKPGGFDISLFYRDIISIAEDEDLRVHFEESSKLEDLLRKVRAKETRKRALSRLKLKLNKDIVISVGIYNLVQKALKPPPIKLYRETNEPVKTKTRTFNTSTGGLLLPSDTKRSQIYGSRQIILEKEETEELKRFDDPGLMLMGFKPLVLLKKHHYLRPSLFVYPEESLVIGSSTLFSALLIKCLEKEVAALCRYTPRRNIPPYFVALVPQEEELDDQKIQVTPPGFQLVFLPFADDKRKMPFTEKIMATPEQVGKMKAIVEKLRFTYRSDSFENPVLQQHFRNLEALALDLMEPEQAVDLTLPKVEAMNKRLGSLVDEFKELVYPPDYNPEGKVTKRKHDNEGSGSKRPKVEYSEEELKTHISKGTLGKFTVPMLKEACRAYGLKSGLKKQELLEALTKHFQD
Ku dCTR (human), one chain, as listed by the source, chain 1 of 2: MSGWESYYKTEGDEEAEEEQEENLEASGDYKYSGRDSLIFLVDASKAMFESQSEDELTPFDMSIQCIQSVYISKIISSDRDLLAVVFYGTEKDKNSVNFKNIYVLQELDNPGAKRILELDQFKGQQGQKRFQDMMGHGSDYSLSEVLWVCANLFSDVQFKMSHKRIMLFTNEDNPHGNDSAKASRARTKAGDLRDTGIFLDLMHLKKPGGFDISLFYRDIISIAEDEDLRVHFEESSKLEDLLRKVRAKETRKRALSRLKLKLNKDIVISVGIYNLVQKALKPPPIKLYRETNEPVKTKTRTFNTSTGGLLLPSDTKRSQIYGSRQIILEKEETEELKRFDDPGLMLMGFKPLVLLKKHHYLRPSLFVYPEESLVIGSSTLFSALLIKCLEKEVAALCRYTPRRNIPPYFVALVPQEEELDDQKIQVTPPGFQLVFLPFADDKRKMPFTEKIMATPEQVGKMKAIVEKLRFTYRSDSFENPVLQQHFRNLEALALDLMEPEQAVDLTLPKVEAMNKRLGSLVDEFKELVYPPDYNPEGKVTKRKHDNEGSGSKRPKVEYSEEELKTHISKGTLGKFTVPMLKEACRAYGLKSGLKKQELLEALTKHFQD
Ku70/Ku80 heterodimer (HeLa) (human (HeLa cells)), one chain, as listed by the source, chain 2 of 2: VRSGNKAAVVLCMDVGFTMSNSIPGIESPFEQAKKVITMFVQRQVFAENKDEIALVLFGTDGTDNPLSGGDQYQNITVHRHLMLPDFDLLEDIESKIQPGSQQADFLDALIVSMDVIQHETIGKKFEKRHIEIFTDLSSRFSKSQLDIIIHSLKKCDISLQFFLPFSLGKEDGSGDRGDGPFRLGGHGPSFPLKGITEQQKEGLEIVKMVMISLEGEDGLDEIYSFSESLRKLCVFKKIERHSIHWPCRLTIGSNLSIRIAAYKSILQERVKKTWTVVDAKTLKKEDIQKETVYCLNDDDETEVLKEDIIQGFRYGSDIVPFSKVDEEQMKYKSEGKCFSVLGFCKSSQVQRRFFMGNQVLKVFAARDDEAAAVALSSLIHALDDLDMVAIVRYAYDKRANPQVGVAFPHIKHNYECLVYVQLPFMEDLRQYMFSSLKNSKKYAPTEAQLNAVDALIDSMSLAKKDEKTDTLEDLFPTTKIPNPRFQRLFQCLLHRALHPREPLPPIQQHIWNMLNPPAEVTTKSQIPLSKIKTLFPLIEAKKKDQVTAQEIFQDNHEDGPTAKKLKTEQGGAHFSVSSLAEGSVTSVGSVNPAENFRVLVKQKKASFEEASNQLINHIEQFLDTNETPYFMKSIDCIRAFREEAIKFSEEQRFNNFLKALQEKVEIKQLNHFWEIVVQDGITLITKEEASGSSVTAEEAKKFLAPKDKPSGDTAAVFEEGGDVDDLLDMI
Ku dCTR (human), one chain, as listed by the source, chain 2 of 2: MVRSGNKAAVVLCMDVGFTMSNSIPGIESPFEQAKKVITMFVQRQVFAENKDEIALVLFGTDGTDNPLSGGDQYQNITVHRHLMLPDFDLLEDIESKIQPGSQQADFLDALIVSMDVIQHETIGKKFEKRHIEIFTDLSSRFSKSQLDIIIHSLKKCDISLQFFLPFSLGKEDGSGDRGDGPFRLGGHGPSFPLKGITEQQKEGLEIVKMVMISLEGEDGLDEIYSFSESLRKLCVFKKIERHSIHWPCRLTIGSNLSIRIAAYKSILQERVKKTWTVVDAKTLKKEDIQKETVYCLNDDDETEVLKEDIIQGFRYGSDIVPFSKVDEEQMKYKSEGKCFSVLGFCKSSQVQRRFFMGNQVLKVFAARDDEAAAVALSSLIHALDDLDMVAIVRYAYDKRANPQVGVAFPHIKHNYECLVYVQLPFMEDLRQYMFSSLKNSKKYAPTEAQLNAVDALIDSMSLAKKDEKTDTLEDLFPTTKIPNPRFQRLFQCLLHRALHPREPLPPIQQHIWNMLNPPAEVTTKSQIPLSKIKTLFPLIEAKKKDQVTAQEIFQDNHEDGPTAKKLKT
Ku5D T305D,S306D,T307D,S314D,T316D (human), one chain, as listed by the source T305D S306D T307D S314D T316D, chain 1 of 2: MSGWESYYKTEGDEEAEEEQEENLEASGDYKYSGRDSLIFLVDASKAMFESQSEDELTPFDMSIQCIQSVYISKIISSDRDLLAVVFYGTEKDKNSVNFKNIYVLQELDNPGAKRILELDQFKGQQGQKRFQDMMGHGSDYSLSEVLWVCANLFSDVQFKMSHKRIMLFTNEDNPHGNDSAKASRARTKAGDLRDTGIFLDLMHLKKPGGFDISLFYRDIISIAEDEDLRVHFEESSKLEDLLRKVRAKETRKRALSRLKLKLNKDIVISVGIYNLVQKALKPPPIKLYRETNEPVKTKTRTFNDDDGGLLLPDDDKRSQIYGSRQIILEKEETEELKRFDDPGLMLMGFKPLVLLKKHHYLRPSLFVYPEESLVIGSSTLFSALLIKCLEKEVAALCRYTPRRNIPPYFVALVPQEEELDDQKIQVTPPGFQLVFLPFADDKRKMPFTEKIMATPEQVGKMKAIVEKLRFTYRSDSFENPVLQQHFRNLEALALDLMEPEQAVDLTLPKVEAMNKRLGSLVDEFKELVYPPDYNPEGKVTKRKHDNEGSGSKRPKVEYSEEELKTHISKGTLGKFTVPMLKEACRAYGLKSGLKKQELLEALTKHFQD

| Sequence | binding result ([1]; label: 5'-FAM) | binding result ([2]; label: 5'-FAM) | binding result ([3]; label: 5'-FAM) | binding result [4] | binding result ([5]; label: 5'-FAM) | further results |
| --- | --- | --- | --- | --- | --- | --- |
| AAGGCUAGACCGGGGGCUCGCAUAUCUCCACUUGCAGCUGCCACUGCCA [SL3] | binds | binds | binds | no binding |  |  |
| AGCATTGACTGGCATCGTAGCATCC (double strand) [25bp duplex DNA] |  |  |  |  |  | binding result ([1]; label: 3'-FAM on lower strand): binds; binding result ([2]; label: 3'-FAM on lower …): binds; binding result ([5]; label: 3'-FAM on lower strand): binds; binding result ([3]; label: 3'-FAM on lower strand): binds |
| CCUGGGGUAGGAGAGGGUAUGGGGACCAGGGCACU [LINP1 GQ1] | binds | binds | binds | no binding |  |  |
| UGACUGGAGGAAGGAGUAUAGAAACUCUUCCUUUUGGCG [SL2-BT] |  |  |  |  | binds more weakly |  |
| UGACUUUUCCUUGCUCAAUAGAAUGAGAAGGAGGUGGCG [SL2] | binds | binds | binds | no binding |  | binding result [6]: binds; binding result [7]: binds |
| UGACUUUUCCUUGCUCAUUUUUUUGAGAAGGAGGUGGCG [SL2-LM] |  |  |  |  | binds more weakly |  |

From paper PMC7641761
